Laboratory results from PubChem BioAssay AID2685 (National Center for Advancing Translational Sciences (NCATS), 2010).
Some of the results follow. The main result of the screen is listed elsewhere. These columns were measured beside it and carry no call. Compounds called inactive in the main read-out are mostly missing here. Words in brackets tell the shape of the fitted curve; partial curves, single points and poor fits give uncertain potencies.

Experiment: qHTS Assay for Lipid Storage Modulators in Drosophila S3 Cells;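 as to cell number change: cells counted by Cell Tracker Red CMTPX staining in the red channel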
Settings: BODIPY lipid droplet fluorescence, 18-24 h; for cell number change: measured here: cell count max response, cells fed with added oleic acid
How it was run: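 Laser-scanning cytometry quantifies lipid droplet accumulation (500–530 nm total intensity; droplet/cell object ratio) in oleic acid-fed (400 uM added) Drosophila S3 cells treated with a concentration series. 20 uM Triacsin C defined 100% inhibition.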

[1] = measured here: cell number channel AC50, cells fed with added oleic acid
[2] = measured here: lipid fluorescence (Fed channel) AC50, cells fed with added oleic acid

SMILES | cell number change | AC50 [1] | AC50 [2]
COc1cccc(-c2cc(C(F)(F)F)nc(NCc3ccco3)n2)c1 | -32.8% | 7.31 µM [falling, partial curve] | 16.4 µM [falling, single point]
COc1ccccc1-n1cnc2c(c1=O)c1nc3ccccc3nc1n2-c1ccc(C)cc1 | 5.31% | 2.91 µM [rising, single point] | –
COc1cc(-c2nc(-c3cccc(C(F)(F)F)c3)no2)cc(OC)c1OC | – | 2.59 µM [rising, partial curve] | 2.59 µM [rising, partial curve]
C#CCOCCOCCOCCNc1nc(N2CCN(C(=O)[C@H]([C@@H](C)CC)n3cc(CCC(=O)O)nn3)CC2)nc(N2CCN(C(=O)[C@H](C)n3cc(CCCN=C(N)N)nn3)CC2)n1 | -22.2% | – | 8.2 µM [falling, partial curve]
CN(C)c1ccc(N=Nc2cccc3ccoc23)cc1 | -67.7% | 3.66 µM [falling, full curve] | 5.17 µM [falling, full curve]
Cc1cc(NC(=O)CC2(CC(=O)O)CCCC2)n(C)n1 | -1.96% | – | 32.6 µM [falling, partial curve, poor fit]
COc1ccccc1CNC(=O)[C@H](NC(=O)C1CCN(C(=O)[C@@H](N)CCSC)CC1)C(C)C | 26.9% | – | 16.4 µM [rising, single point]
COc1ccccc1NC(=O)C(C)OC(=O)CCC1CCCCC1 (configuration not stated) | -4.44% | – | 0.231 µM [falling, full curve, poor fit]
O=C(Nc1ccc2oc(-c3cccnc3)nc2c1)c1cccnc1 | -19.4% | – | 6.51 µM [rising, partial curve, poor fit]
NC(=O)Nc1cc(Cl)ccc1Cl | -13.5% | – | 29.1 µM [falling, single point]
O=S(=O)(Nc1ccc(S(=O)(=O)Nc2cccc3ccccc23)cc1)c1ccccc1 | – | 2.31 µM [rising, partial curve] | 1.84 µM [rising, partial curve]
c1ccc(CN2CCC3(CCCc4ccccc43)CC2)cc1 | -0.346% | – | 2.31 µM [rising, partial curve]
O=Cc1ccc(-n2cc(C=O)c3ccccc32)cc1 | -14.1% | – | 18.4 µM [falling, single point]
Cc1nn(C)cc1C(C(=O)NC1CCCCC1)N(C(=O)c1cnccn1)c1ccc(Oc2ccccc2)cc1 (configuration not stated) | -10.7% | – | 3.66 µM [rising, single point]
COc1ccc(C(=O)NC2CCN(S(=O)(=O)c3ccc(C)cc3)CC2)cc1 | -0.246% | – | 3.26 µM [rising, single point]

Copied from the list:
In AC50 [1], COc1cccc(-c2cc(C(F)(F)F)nc(NCc3ccco3)n2)c1 reads 7.31 µM [falling, partial curve]
In cell number change, NC(=O)Nc1cc(Cl)ccc1Cl reads -13.5%
